Some entries share one result that the patent states for a list of compounds.
Columns and labels:
[1] = system: 5/6 nephrectomized uremic rats; assay: Serum creatinine, BUN, PTH, phosphorus and calcium in 5/6 nephrectomized uremic rats; type: in vivo, Sprague Dawley rats; settings: 5/6 NX uremic rats, i.p. 3 times/week for two weeks
Experimental: The nephrectomy of male, Sprague Dawley, 5/6 rats was performed using a standard two-step surgical ablation procedure (starting body weight ˜200 gm) as previously described (Slatopolsky et al., 1998, Am J Kidney Dis 32: S40-47). Sham operated rats were used as control. The rats were on a diet containing 1.13% calcium and 0.94% phosphorus. Six weeks after the second surgery, treatment was initiated with vehicle (5% ethanol+95% propylene glycol, 0.4 ml/kg) or test agent by intraperitoneal injection (i.p.), 3 times/week, for two weeks (n≥12 per group). Twenty-four hours after the last dose, retro-orbital venous blood was collected for measurement of PTH and other endpoints.
Calcium, serum phosphorus, creatinine, and blood urea nitrogen (BUN) concentrations were measured by a chemistry analyzer (LX-20, Beckman). Serum PTH was measured using a rat intact parathyroid hormone (i-PTH) ELISA kit. For serum chemistry data, group mean±SEM are presented. A t-test was used to analyze differences between baseline 6W (6 weeks after surgery before treatment) and 8W (8 weeks after surgery after two weeks of compound treatment).

normal mice = assay: Hypercalcemic side effect profile and serum PTH in normal mice; type: in vivo, Male C57/BL mice; settings: i.p. dosing once daily for 3 consecutive days
Experimental: The normal mice model is a convenient and quick way to assess the hypercalcemic side effect profile of compounds. At the same time, data on serum PTH can be collected.
Male C57/BL mice at 18-20 g are dosed with the test agent at 100 al/mouse (concentrations as indicated) i.p. once daily for 3 consecutive days or at 10 ml/kg, p.o. gavage, once daily for 5 days. The animals were harvested 24 h after the last dose by anesthetization with ketamine/xylazine. Blood was collected from the aorta. Serum total calcium was measured using the QuantiChrom Calcium Assay kit and/or the Roche Hitachi 912 Chemistry Analyzer. Serum PTH was measured using a PTH Immunoassay. Vehicle control was 100 l/mouse of 5% EtOH/95% propylene glycol for i.p. dosing or 10 ml/kg of 20% Hydroxypropyl-β-Cyclodextrin for p.o. gavage dosing.
For serum chemistry data, group mean±SEM are presented. Differences between vehicle and compound-treated groups are assessed using a one-way ANOVA followed by a Dunnett's post-hoc test. FIGS. 3A and 3B show the results from a typical p.o. gavage dosing study (n=4-9 per group).

## C=C1[C@H](O)CC(=C/C=C2\CCCC3(C)C2CCC3[C@@H](C)OC[C@H](C)C(C)(C)O)C[C@H]1O (stereo partly drawn) [Vida-5, (1R,3R)-5-((E)-2-((3αS,7αS)-1-((R)-1-((S)-3-hydroxy-2,3-dimethylbutoxy)ethyl)-7α-methyldihydro-1H-inden-4(2H,5H,6H, 7H, 7αH)-ylidene)ethylidene)-2-methylenecyclohexane-1,3-diol]
[1]
  dose at which compound raises serum Ca: > 0.00064 mg/kg

## CCC(O)(CC)CCO[C@H](C)C1CCC2/C(=C/C=C3C[C@@H](O)C4(CC4)[C@H](O)C3)CCCC21C (stereo partly drawn) [Vida-10, (4R,8R)-6-((E)-2-((1S,7αS)-1-((R)-1-(3-ethyl-3-hydroxypentyloxy)ethyl)-7α-methyldihydro-1H-inden-4(2H,5H,6H,7H,7αH)-ylidene)ethylidene)spiro[2.5]octane-4,8-diol]
[1]
  dose at which compound raises serum Ca: > 0.00064 mg/kg

## C=C1[C@H](O)CC(=C/C=C2\CCC[C@]3(C)[C@@H]([C@H](C)COc4ccccc4)CC[C@@H]23)C[C@H]1O [Vida-36, (1R,3R)-5-((E)-2-((1R,3αS,7αR)-7α-methyl-1-((S)-1-phenoxypropan-2-yl)dihydro-1H-inden-4(2H, 5H, 6H, 7H, 7αH)-ylidene)ethylidene)-2-methylenecyclohexane-1,3-diol]
Normal mice
  dose at which compound starts to raise serum Ca: > 0.01 mg/kg

## C=C1[C@H](O)CC(=C/C=C2\CCCC3(C)C2CCC3[C@@H](C)CSc2cccc(C(C)(C)O)c2)C[C@H]1O (stereo partly drawn) [Vida-43, (1R,3R)-5-((E)-2-(1-((R)-1-(3-(2-hydroxypropan-2-yl)phenylthio)propan-2-yl)-7α-methyldihydro-1H-inden-4(2H, 5H, 6H, 7H, 7αH)-ylidene)ethylidene)-2-methylenecyclohexane-1,3-diol]
Normal mice
  dose at which compound starts to raise serum Ca: > 0.01 mg/kg

## C[C@@H](COc1cccc(C(C)(C)O)c1)[C@H]1CC[C@H]2/C(=C/C=C3C[C@@H](O)C4(CC4)[C@H](O)C3)CCC[C@]12C [Vida-57, (4R,8R)-6-((E)-2-(1-((R)-1-(3-(2-hydroxypropan-2-yl)phenoxy)propan-2-yl)-7-methyldihydro-1H-inden-4(2H,5H,6H, 7H,7αH)-ylidene)ethylidene)spiro[2.5]octane-4,8-diol]
Normal mice
  dose at which compound starts to raise serum Ca: > 0.01 mg/kg

## C[C@@H](CSc1cccc(C(C)(C)O)c1)C1CCC2/C(=C/C=C3C[C@@H](O)C4(CC4)[C@H](O)C3)CCCC21C (stereo partly drawn) [Vida-58, (4R,8R)-6-((E)-2-(1-((R)-1-(3-(2-hydroxypropan-2-yl)phenylthio)propan-2-yl)-7α-methyldihydro-1H-inden-4(2H,5H,6H, 7H, 7αH)-ylidene)ethylidene)spiro[2.5]octane-4,8-diol]
Normal mice
  dose at which compound starts to raise serum Ca: > 0.01 mg/kg
